Test results published in patent US9072751B2, “Na/K-ATPase ligand” (priority 2006, dated 2015).
At least one compound was matched to its structure with a doubt left.

Tested on: isolated cardiac fibroblasts
Assay type: cell-based, rat
Details: 24 hours exposure
Method: Preparation of adult rat cardiac fibroblasts was performed as described previously by Brilla et al. with modifications.
Western blot analysis was performed on protein isolated from tissue homogenates, cell culture whole cell lysates, or nuclear extracts as described previously.
Representative Western blot for procollagen and quantitative densitometric data obtained in response to different doses of (a) MBG (all N=10), (b) MBG 10 nM contrasted with different doses of ouabain (0.1 to 100 nM) and digoxin (10 nM; all N=8). c, ouabain sensitive Rb uptake as a function of MBG and ouabain concentration (N=4 at each concentration for both MBG and ouabain; data expressed as fraction of control). d, relative proline incorporation in the supernatant and matrix, both will and without collagenase digestion (total). Each group (controls and different doses of MBG) contains N=7 replicants. The difference between the total and after collagenase digestion is reported as collagen. […] Bars on quantitative graphs represent the mean.+−.SEM. *P<0.05 and **P<0.01 vs control.
The PP2, herbimycin AG1478, and N-acetyl cysteine were administered from 2 hours before the addition of MBG and continued throughout the 24 hours of MBG incubation (total of 26 hours). […] Representative Western blots are shown above quantitative data. […]

C[C@]12CC[C@H](O)C[C@@]1(O)CC[C@@H]1[C@@H]2CC[C@]2(C)[C@@H](c3ccc(=O)oc3)C[C@H]3O[C@]132 [MBG, marinobufagenin]
Threshold for effect on procollagen content: 10^−10 and 10^−9
